Assay [1] deals with T1, recombinant human MD-1 (myeloid differentiation protein 1, lymphocyte antigen 86) (human) (UniProt O95711).
T1 sequence: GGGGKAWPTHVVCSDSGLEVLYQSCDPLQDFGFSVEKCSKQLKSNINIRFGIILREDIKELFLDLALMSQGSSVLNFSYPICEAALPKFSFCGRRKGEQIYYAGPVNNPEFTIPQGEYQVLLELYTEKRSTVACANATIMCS
Kind of assay: co-IP; human neutrophils incubated with recombinant human MD-1 (75 ng/mL) for 60 min at 37 °C, washed, lysed; anti-MD-1 antibody on Protein A magnetic beads, normal IgG as control; blot for TLR4; only the target purified.

By UniProt entry, the sequences of proteins in these tests, tags left out. Residues count along the entry.
UniProt O00206, residues 24-839: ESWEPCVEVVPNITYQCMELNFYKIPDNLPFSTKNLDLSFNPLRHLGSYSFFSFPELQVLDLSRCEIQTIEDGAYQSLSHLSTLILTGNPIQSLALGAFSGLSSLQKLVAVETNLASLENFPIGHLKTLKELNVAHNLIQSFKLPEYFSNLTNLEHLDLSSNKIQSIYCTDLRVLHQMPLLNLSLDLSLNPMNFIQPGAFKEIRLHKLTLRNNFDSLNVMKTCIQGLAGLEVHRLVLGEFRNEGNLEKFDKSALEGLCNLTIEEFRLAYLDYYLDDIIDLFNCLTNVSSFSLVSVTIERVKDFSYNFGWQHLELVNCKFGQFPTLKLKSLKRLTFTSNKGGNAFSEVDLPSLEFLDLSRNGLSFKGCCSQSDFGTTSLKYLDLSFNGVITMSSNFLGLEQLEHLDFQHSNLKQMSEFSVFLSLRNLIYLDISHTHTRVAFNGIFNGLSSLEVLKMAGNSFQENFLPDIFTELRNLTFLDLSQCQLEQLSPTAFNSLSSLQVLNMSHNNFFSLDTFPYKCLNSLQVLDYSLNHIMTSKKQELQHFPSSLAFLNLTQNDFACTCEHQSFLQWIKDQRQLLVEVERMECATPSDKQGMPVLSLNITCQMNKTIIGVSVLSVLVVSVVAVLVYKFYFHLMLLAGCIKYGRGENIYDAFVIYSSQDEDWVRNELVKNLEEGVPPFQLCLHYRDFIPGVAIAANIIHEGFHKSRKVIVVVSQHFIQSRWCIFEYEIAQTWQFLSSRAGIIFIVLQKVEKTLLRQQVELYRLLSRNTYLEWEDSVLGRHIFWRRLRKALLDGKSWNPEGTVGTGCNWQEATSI

For assay [2], the target named is Toll-like receptor 4 (TLR4) on human peripheral blood neutrophils (human (endogenous in peripheral blood neutrophils)) (UniProt O00206). The assay can be described thus: co-IP; human neutrophils incubated with recombinant human MD-1 (75 ng/mL) for 60 min at 37 °C, washed, lysed; anti-TLR4 antibody on Protein A magnetic beads, normal IgG as control; blot for MD-1; only the binder purified.

The target is the same in assay [3]. Kind of assay: proximity ligation; Duolink PLA on fixed, permeabilised neutrophils of healthy volunteers incubated with recombinant human MD-1 (50 or 75 ng/mL, or 75 ng/mL with 1 μM TAK-242) for 60 min at 37 °C; primary antibodies against MD-1 and TLR4; single antibodies as negative controls; only the binder purified.
Assay [4] has the same target. The assay can be described thus: proximity ligation; Duolink PLA on fixed, permeabilised, freshly isolated neutrophils of carotid plaque patients, no MD-1 added; primary antibodies against MD-1 and TLR4.

Results are given in words; binding and its absence hold for the method and conditions named. Binding seen in cells or lysates may run through a third protein. Some entries that bind do so weakly or less than the wild type.

In the case of “Toll-like receptor 4 (TLR4) on human peripheral blood neutrophils (from UniProt O00206 24-839)”, the binding entry in assay [1] was “binds”.

B1: recombinant human MD-1 (myeloid differentiation protein 1, lymphocyte antigen 86) (protein, UniProt O95711 21-162)
chain: GGGGKAWPTHVVCSDSGLEVLYQSCDPLQDFGFSVEKCSKQLKSNINIRFGIILREDIKELFLDLALMSQGSSVLNFSYPICEAALPKFSFCGRRKGEQIYYAGPVNNPEFTIPQGEYQVLLELYTEKRSTVACANATIMCS
On to B1, for which the binding result in assay [2] and in assay [3] was “binds” throughout.

B2: endogenous secreted MD-1 (LY86) of carotid plaque patients (protein, UniProt O95711 21-162)
chain: GGGGKAWPTHVVCSDSGLEVLYQSCDPLQDFGFSVEKCSKQLKSNINIRFGIILREDIKELFLDLALMSQGSSVLNFSYPICEAALPKFSFCGRRKGEQIYYAGPVNNPEFTIPQGEYQVLLELYTEKRSTVACANATIMCS
For B2, in assay [4], the binding entry was “binds”.

For the origin of these results see paper PMC11372095.
